The effect of the compound repeats well; differences between the knockouts mostly do not.
Test system: BT-20
Experiment: relative cell number vs DMSO control (72 h) (% of DMSO); higher = less growth inhibition (more cells)
Description: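 QMAP-Seq: a pool of 5 breast cancer cell lines (ZR-75-1, SKBR3, HCC-38, MDA-MB-231, BT-20), each carrying 12 doxycycline-inducible Cas9 sgRNA perturbations (11 knockouts plus non-targeting sgNT), was treated with compounds for 72 h at four 10-fold doses (10 nM-10 uM or 1 nM-1 uM range). Barcodes were amplified and sequenced, and cell number was interpolated from 293T spike-in standard curves. The result is expressed as % of the median of DMSO wells. Two biological replicates.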

Cc1ccc(C(=O)N(CCCN)[C@@H](c2oc3cc(Cl)ccc3c(=O)c2Cc2ccccc2)C(C)C)cc1
Details | relative cell number
sgRNA knockout: sgATF3, 10 nM | 27.7
sgRNA knockout: sgATF3, 100 nM | 25.1
sgRNA knockout: sgATF3, 1000 nM | 27.7
sgRNA knockout: sgATF3, 10000 nM | 4.79
sgRNA knockout: sgATF4, 10 nM | 27.9
sgRNA knockout: sgATF4, 100 nM | 30
sgRNA knockout: sgATF4, 1000 nM | 27.9
sgRNA knockout: sgATF4, 10000 nM | 5.41
sgRNA knockout: sgATF6, 10 nM | 26.8
sgRNA knockout: sgATF6, 100 nM | 27.5
sgRNA knockout: sgATF6, 1000 nM | 34.5
sgRNA knockout: sgATF6, 10000 nM | 4.77
sgRNA knockout: sgATG7, 10 nM | 29.6
sgRNA knockout: sgATG7, 100 nM | 27.7
sgRNA knockout: sgATG7, 1000 nM | 33.9
sgRNA knockout: sgATG7, 10000 nM | 6.02
sgRNA knockout: sgERN1, 10 nM | 32.4
sgRNA knockout: sgERN1, 100 nM | 22.2
sgRNA knockout: sgERN1, 1000 nM | 32
sgRNA knockout: sgERN1, 10000 nM | 5.59
sgRNA knockout: sgHSF1, 10 nM | 28.9
sgRNA knockout: sgHSF1, 100 nM | 21.3
sgRNA knockout: sgHSF1, 1000 nM | 34.2
sgRNA knockout: sgHSF1, 10000 nM | 3.45
sgRNA knockout: sgHSF2, 10 nM | 30.5
sgRNA knockout: sgHSF2, 100 nM | 23
sgRNA knockout: sgHSF2, 1000 nM | 32.4
sgRNA knockout: sgHSF2, 10000 nM | 7.06
sgRNA knockout: sgKEAP1, 10 nM | 29.2
sgRNA knockout: sgKEAP1, 100 nM | 25.4
sgRNA knockout: sgKEAP1, 1000 nM | 30.4
sgRNA knockout: sgKEAP1, 10000 nM | 5.4
sgRNA knockout: sgNFE2L2, 10 nM | 30.7
sgRNA knockout: sgNFE2L2, 100 nM | 26.2
sgRNA knockout: sgNFE2L2, 1000 nM | 37
sgRNA knockout: sgNFE2L2, 10000 nM | 7.43
sgRNA knockout: sgSLC35F2, 10 nM | 28.3
sgRNA knockout: sgSLC35F2, 100 nM | 31.9
sgRNA knockout: sgSLC35F2, 1000 nM | 35.2
sgRNA knockout: sgSLC35F2, 10000 nM | 3.76
sgRNA knockout: sgXBP1, 10 nM | 27
sgRNA knockout: sgXBP1, 100 nM | 25.9
sgRNA knockout: sgXBP1, 1000 nM | 31.3
sgRNA knockout: sgXBP1, 10000 nM | 6.05

Cc1ccc(S(=O)(=O)OCC(=O)Nc2ccc(C(=O)O)c(O)c2)cc1
Details | relative cell number
sgRNA knockout: sgATF3, 10 nM | 113
sgRNA knockout: sgATF3, 100 nM | 88.6
sgRNA knockout: sgATF3, 1000 nM | 99.9
sgRNA knockout: sgATF3, 10000 nM | 89.31
sgRNA knockout: sgATF4, 10 nM | 109
sgRNA knockout: sgATF4, 100 nM | 103
sgRNA knockout: sgATF4, 1000 nM | 110
sgRNA knockout: sgATF4, 10000 nM | 97.2
sgRNA knockout: sgATF6, 10 nM | 107
sgRNA knockout: sgATF6, 100 nM | 88.3
sgRNA knockout: sgATF6, 1000 nM | 106
sgRNA knockout: sgATF6, 10000 nM | 91
sgRNA knockout: sgATG7, 10 nM | 101
sgRNA knockout: sgATG7, 100 nM | 92.4
sgRNA knockout: sgATG7, 1000 nM | 92.6
sgRNA knockout: sgATG7, 10000 nM | 99.9
sgRNA knockout: sgERN1, 10 nM | 100
sgRNA knockout: sgERN1, 100 nM | 97.3
sgRNA knockout: sgERN1, 1000 nM | 102
sgRNA knockout: sgERN1, 10000 nM | 82.1
sgRNA knockout: sgHSF1, 10 nM | 109
sgRNA knockout: sgHSF1, 100 nM | 99.4
sgRNA knockout: sgHSF1, 1000 nM | 103
sgRNA knockout: sgHSF1, 10000 nM | 81.5
sgRNA knockout: sgHSF2, 10 nM | 117
sgRNA knockout: sgHSF2, 100 nM | 79.9
sgRNA knockout: sgHSF2, 1000 nM | 91
sgRNA knockout: sgHSF2, 10000 nM | 96.5
sgRNA knockout: sgKEAP1, 10 nM | 96.2
sgRNA knockout: sgKEAP1, 100 nM | 96.1
sgRNA knockout: sgKEAP1, 1000 nM | 90.61
sgRNA knockout: sgKEAP1, 10000 nM | 88.3
sgRNA knockout: sgNFE2L2, 10 nM | 111
sgRNA knockout: sgNFE2L2, 100 nM | 96.7
sgRNA knockout: sgNFE2L2, 1000 nM | 113
sgRNA knockout: sgNFE2L2, 10000 nM | 94.5
sgRNA knockout: sgSLC35F2, 10 nM | 108
sgRNA knockout: sgSLC35F2, 100 nM | 96.4
sgRNA knockout: sgSLC35F2, 1000 nM | 93.1
sgRNA knockout: sgSLC35F2, 10000 nM | 105
sgRNA knockout: sgXBP1, 10 nM | 114
sgRNA knockout: sgXBP1, 100 nM | 101
sgRNA knockout: sgXBP1, 1000 nM | 104
sgRNA knockout: sgXBP1, 10000 nM | 98

Cc1nc(Nc2n[nH]c3c2CN(C(=O)N[C@H](CN(C)C)c2ccccc2)C3(C)C)c2sccc2n1
Details | relative cell number
sgRNA knockout: sgATF3, 10 nM | 72.2
sgRNA knockout: sgATF3, 100 nM | 53.8
sgRNA knockout: sgATF3, 1000 nM | 35.6
sgRNA knockout: sgATF3, 10000 nM | 14.1
sgRNA knockout: sgATF4, 10 nM | 62.7
sgRNA knockout: sgATF4, 100 nM | 56.3
sgRNA knockout: sgATF4, 1000 nM | 33.1
sgRNA knockout: sgATF4, 10000 nM | 14.2
sgRNA knockout: sgATF6, 10 nM | 75.2
sgRNA knockout: sgATF6, 100 nM | 52.6
sgRNA knockout: sgATF6, 1000 nM | 28.4
sgRNA knockout: sgATF6, 10000 nM | 14.7
sgRNA knockout: sgATG7, 10 nM | 69.6
sgRNA knockout: sgATG7, 100 nM | 62.6
sgRNA knockout: sgATG7, 1000 nM | 31.9
sgRNA knockout: sgATG7, 10000 nM | 14.7
sgRNA knockout: sgERN1, 10 nM | 73.1
sgRNA knockout: sgERN1, 100 nM | 57.3
sgRNA knockout: sgERN1, 1000 nM | 33.6
sgRNA knockout: sgERN1, 10000 nM | 11.6
sgRNA knockout: sgHSF1, 10 nM | 87.5
sgRNA knockout: sgHSF1, 100 nM | 51.9
sgRNA knockout: sgHSF1, 1000 nM | 35.1
sgRNA knockout: sgHSF1, 10000 nM | 17.2
sgRNA knockout: sgHSF2, 10 nM | 75
sgRNA knockout: sgHSF2, 100 nM | 61.2
sgRNA knockout: sgHSF2, 1000 nM | 28
sgRNA knockout: sgHSF2, 10000 nM | 9.66
sgRNA knockout: sgKEAP1, 10 nM | 76.2
sgRNA knockout: sgKEAP1, 100 nM | 53.45
sgRNA knockout: sgKEAP1, 1000 nM | 36
sgRNA knockout: sgKEAP1, 10000 nM | 12.9
sgRNA knockout: sgNFE2L2, 10 nM | 81.9
sgRNA knockout: sgNFE2L2, 100 nM | 59.7
sgRNA knockout: sgNFE2L2, 1000 nM | 34.1
sgRNA knockout: sgNFE2L2, 10000 nM | 14.4
sgRNA knockout: sgSLC35F2, 10 nM | 67.9
sgRNA knockout: sgSLC35F2, 100 nM | 47.6
sgRNA knockout: sgSLC35F2, 1000 nM | 32.3
sgRNA knockout: sgSLC35F2, 10000 nM | 14.1
sgRNA knockout: sgXBP1, 10 nM | 73.9
sgRNA knockout: sgXBP1, 100 nM | 56.7
sgRNA knockout: sgXBP1, 1000 nM | 27.3
sgRNA knockout: sgXBP1, 10000 nM | 12.9
